Measurements published in PubChem BioAssay AID2551 (National Center for Advancing Translational Sciences (NCATS), 2010).
Among all 310,000 compounds or so, about 17,000 (5.5%) were called active. Inconclusive results, whose numbers are uncertain, are shown with a selection of clear calls. Calls come from the whole dose curve; as a rule, active = well fitted inhibition curve with a large enough effect; inconclusive = small, poorly fitted or top-dose-only effect, or effect the other way; inactive = no such curve, though single readings can be large or run the other way. A potency beside an inconclusive call is a rough fit, not a confirmed value.

Protein sequences, listed by entry. Tags and fused reporters are not part of them. Lines headed by an entry give the natural chain unless they say otherwise; changes in a name come on top.
UniProt P51450: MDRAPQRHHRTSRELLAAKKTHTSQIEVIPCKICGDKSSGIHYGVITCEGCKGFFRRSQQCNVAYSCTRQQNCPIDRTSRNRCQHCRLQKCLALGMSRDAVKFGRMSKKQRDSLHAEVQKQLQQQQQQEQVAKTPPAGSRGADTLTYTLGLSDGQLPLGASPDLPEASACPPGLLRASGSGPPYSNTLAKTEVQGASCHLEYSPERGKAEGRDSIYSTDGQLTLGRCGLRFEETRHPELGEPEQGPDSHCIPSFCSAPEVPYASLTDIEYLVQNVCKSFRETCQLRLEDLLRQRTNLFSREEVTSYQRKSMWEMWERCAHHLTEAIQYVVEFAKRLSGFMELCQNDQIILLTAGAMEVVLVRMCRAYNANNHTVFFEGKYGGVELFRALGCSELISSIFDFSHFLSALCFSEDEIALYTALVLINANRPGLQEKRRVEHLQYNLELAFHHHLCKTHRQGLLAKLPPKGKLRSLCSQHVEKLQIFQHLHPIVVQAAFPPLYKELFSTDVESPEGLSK

Biological target: Nuclear receptor ROR-gamma (Mus musculus) (UniProt P51450)
Assay: qHTS for inhibitors of ROR gamma transcriptional activity; note: nearly all actives have a fitted effect of over 60% in size
Settings: Drosophila S2 Gal4-RORgamma UAS-luciferase reporter, 20 h; activity change, negative = inhibition: at 53.6 µM (top of the series)
Method in brief: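 ROR gamma transcriptional activity was tracked as Gal4-UAS luciferase output in stably transfected Drosophila Schneider cells, with compound added 1 hr before 700 uM copper sulfate induction and a 20 hr ambient-temperature incubation.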
% is set by controls: 0 for no effect and ±100 for the full control effect; potency is the fitted concentration of half-maximal effect.

Row | Compound | activity change, negative = inhibition | Potency
1 | O=C(CCCn1c(=O)[nH]c2cc(Cl)ccc2c1=O)NCCN1CCN(c2ccccc2)CC1 | inactive: -12.5% | –
2 | O=C(NC1CCCCC1)c1cccc(COCC(F)(F)F)c1 | – | inconclusive: 22.4 µM [activator, single point]
3 | CCCOc1cccc(C(=O)NC(=S)Nc2ccccc2)c1 | – | active: 8.91 µM
4 | CC(C)(C)C1CCc2c(sc(NC(=O)CSc3ncn[nH]3)c2C#N)C1 (stereo not given) | – | inconclusive: 2 µM [inhibitor, partial curve, poor fit]
5 | Cc1ccc(-c2[nH]nc(N)c2N=Nc2cccc(Cl)c2C)cc1 | – | inconclusive: 35.5 µM [inhibitor, single point]
6 | Cc1cc(C)cc(-n2c(C)cc(/C=C3\C(=N)N4N=C(CC(C)C)SC4=NC3=O)c2C)c1 | – | inconclusive: 11.2 µM [inhibitor, single point]
7 | CC(=O)c1c(C)[nH]c(C(=O)CSc2nnc(-c3cccs3)n2Cc2ccccc2)c1C | inactive: 1.49% | –
8 | Cc1ccc2cc(/C=N/Nc3ccc(C(=O)O)cc3)c(Cl)nc2c1 | inactive: -43.4% | –
9 | CCC(=O)Nc1nc2ccc3nc(C)sc3c2s1 | – | inconclusive: 4.47 µM [activator, partial curve]
10 | CCOC(=O)c1ccc(NC(=S)N2CCSC2c2ccc(OC)cc2)cc1 (stereo not given) | – | inconclusive: 25.1 µM [inhibitor, single point]
11 | Cc1ccc(O)c(-c2cc(-c3ccccc3C)[nH]n2)c1 | – | active: 11.2 µM
12 | Cc1nc2ccccc2c(=O)n1NC(=O)C1CC1C (stereo not given) | inactive: 0.626% | –
13 | Cc1nnc(Sc2cc(NCCO)c([N+](=O)[O-])c3nonc23)s1 | – | active: 3.16 µM
14 | COc1cccc2sc(NNC(=O)C3COc4ccccc4O3)nc12 (stereo not given) | – | active: 3.55 µM
15 | O=C(Cc1ccc(Cl)cc1)NNC(=O)C1CC=CCC1C(=O)O (stereo not given) | inactive: -18.7% | –
16 | CN1CCN(S(=O)(=O)c2ccc(NC(=O)Nc3cccc(Cl)c3)cc2)CC1 | – | inconclusive: 12.6 µM [activator, single point]
17 | O=C(COc1ccc([N+](=O)[O-])cc1)NNC(=S)NC(=O)c1ccc(Br)cc1 | – | active: 3.16 µM
18 | Cn1c(=O)c2c(nc(NCCCO)n2C/C=C/c2ccccc2)n(C)c1=O | – | inconclusive: 17.8 µM [activator, single point]
19 | O=c1cc(C(F)(F)F)[nH]c2ccc(OC(F)(F)F)cc12 | – | inconclusive: 3.16 µM [inhibitor, single point]
20 | S=C(Nc1ccccc1)Nc1ccc(Cl)cc1Cl | – | inconclusive: 15.8 µM [inhibitor, partial curve, poor fit]
21 | O=C(N/N=C/c1ccccn1)c1cc(-c2ccccc2Cl)n[nH]1 | – | active: 15.8 µM
22 | C[C@@H]1C[C@@H]2OC(=O)[C@]3(C)[C@H]2[C@@H](OC3(C)O)[C@]2(C)C(=O)C=C[C@H]12 (stereo not given in full) | inactive: 14.4% | –
23 | CN(C)c1ccc(NC(=S)NC(=O)/C=C/c2ccc(Cl)cc2)cc1 | – | inconclusive: 35.5 µM [inhibitor, single point]

Compounds from the list above with a CF3 group:
Row | Compound | activity change, negative = inhibition | Potency
2 | O=C(NC1CCCCC1)c1cccc(COCC(F)(F)F)c1 | – | inconclusive: 22.4 µM [activator, single point]
19 | O=c1cc(C(F)(F)F)[nH]c2ccc(OC(F)(F)F)cc12 | – | inconclusive: 3.16 µM [inhibitor, single point]

(further entries)

Row | Compound | activity change, negative = inhibition | Potency
24 | CC1NC2(C(=O)N(Cc3ccccc3)c3ccccc32)C2C(=O)N(c3ccccc3)C(=O)C12 (stereo not given) | inactive: 35% | –
25 | CCOc1ccc(C(=O)NC(=S)Nc2ccccn2)cc1[N+](=O)[O-] | – | active: 0.708 µM
26 | COc1cccc(C(=O)Nc2ccc3nc(N4CCN(c5ncccn5)CC4)cc(C)c3c2)c1OC | – | inconclusive: 0.316 µM [activator, full curve, poor fit]
27 | Cc1ccc(NC(=O)c2cc3c(s2)CCC3)cc1S(=O)(=O)N1CCOCC1 | – | inconclusive: 11.2 µM [activator, partial curve]
28 | CCOc1ccc(/C=C/C(=O)c2cc(Br)ccc(=O)c2O)cc1 | – | inconclusive: 35.5 µM [inhibitor, single point]
29 | Nc1nc(Cl)cc(Sc2ccc(F)cc2)n1 | – | inconclusive: 4.47 µM [activator, single point]
30 | O=[N+]([O-])c1ccccc1/C=C/C=N/n1c(-c2cc(-c3ccccc3)n[nH]2)n[nH]c1=S | – | inconclusive: 14.1 µM [inhibitor, single point]
31 | Cc1cc(C)cc(N(C(=O)c2csnn2)C(C(=O)NC2CCCCC2)c2ccccn2)c1 (stereo not given) | inactive: -18% | –
32 | COc1ccc(NC(=O)CSc2nnc(-c3ccccc3)n2Cc2ccco2)cc1OC | – | inconclusive: 11.2 µM [activator, single point]
33 | N#Cc1c(N)nc2c(c1N)CC(COc1ccccc1)O2 (stereo not given) | inactive: 30.4% | –
34 | O=C(NCCc1ccc(F)cc1)N[C@@H](Cc1ccccc1)C(=O)O | inactive: -35.9% | –
35 | COc1ccc(-c2cc(C3CCN(c4ccc(C(C)=O)cc4[N+](=O)[O-])CC3)[nH]n2)cc1 | – | inconclusive: 35.5 µM [inhibitor, single point]
36 | CCc1cc(=O)oc2cc3occ(-c4ccc(OC)c(F)c4)c3cc12 | – | inconclusive: 35.5 µM [inhibitor, single point]
37 | CC(OCC(O)CN(C)Cc1nc2ccccc2c(=O)[nH]1)c1ccc(Cl)cc1 (stereo not given) | – | inconclusive: 5.01 µM [inhibitor, single point]
38 | CNC(=S)N/N=C(\C)c1ccc(C)c(C)c1 | – | active: 1.78 µM
39 | Cc1ccc(/C=N/NC(=O)CSc2nnc(-c3ccccc3)n2-c2ccc(Cl)cc2)o1 | – | inconclusive: 6.31 µM [activator, single point]
40 | Cc1nc([N+](=O)[O-])c(Sc2nc3ccccc3n2C)n1Cc1ccccc1 | – | inconclusive: 39.8 µM [inhibitor, partial curve, poor fit]
41 | CN1/C(=C\C(=O)COC(=O)CNC(=O)c2ccc3ccccc3c2)C(C)(C)c2ccccc21 | – | inconclusive: 35.5 µM [activator, single point]
42 | c1ccc(N/N=C2\CCCc3ccccc32)nc1 | – | active: 12.6 µM
43 | COc1ccc(OCC(=O)NC(=S)Nc2ccccc2F)cc1 | – | inconclusive: 22.4 µM [inhibitor, single point]
44 | Cc1cccc(NS(=O)(=O)c2cc(C(=O)NCCC3=CCCCC3)ccc2Cl)c1 | – | inconclusive: 15.8 µM [activator, single point]
45 | COCCn1c(SCC(=O)N2CCCCCC2)nc2c([nH]c3ccccc32)c1=O | – | inconclusive: 17.8 µM [inhibitor, single point]
